These are yes or no findings as the source states them, for the method shown. Some results given as binding are weak or reduced against the parent protein; the word gives no strength.
T1: XA21 intracellular domain (668-1025aa) (rice (Oryza longistaminata)) (UniProt Q40640)
T1 sequence: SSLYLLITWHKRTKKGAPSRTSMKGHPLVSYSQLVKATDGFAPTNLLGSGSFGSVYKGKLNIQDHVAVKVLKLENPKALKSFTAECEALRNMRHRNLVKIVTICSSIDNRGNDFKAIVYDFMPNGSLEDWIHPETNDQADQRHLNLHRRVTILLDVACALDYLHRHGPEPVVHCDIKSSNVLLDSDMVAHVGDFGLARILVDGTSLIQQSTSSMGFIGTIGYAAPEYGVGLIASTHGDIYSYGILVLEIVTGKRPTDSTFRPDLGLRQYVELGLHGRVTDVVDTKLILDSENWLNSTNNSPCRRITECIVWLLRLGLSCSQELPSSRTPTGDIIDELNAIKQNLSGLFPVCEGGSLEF

By UniProt entry, the sequences of proteins in these tests, tags left out. Residues count along the entry.
UniProt C0LGT6, residues 674-1031: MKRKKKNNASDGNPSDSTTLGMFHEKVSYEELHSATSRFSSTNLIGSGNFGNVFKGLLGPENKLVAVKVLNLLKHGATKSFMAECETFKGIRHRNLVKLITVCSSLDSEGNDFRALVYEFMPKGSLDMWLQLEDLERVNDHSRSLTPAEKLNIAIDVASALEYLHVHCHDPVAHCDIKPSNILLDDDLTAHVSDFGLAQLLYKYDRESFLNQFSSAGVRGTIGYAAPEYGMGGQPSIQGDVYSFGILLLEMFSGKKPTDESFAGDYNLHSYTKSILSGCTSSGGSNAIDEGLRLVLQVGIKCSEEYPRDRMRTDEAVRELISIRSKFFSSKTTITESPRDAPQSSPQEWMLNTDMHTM


What was measured:
[1] = molecular target: EFR intracellular domain (ID) (674-1032aa) (Arabidopsis) (UniProt C0LGT6); experiment: two-hybrid
[2] = molecular target: T1, XA21 intracellular domain (668-1025aa) (rice (Oryza longistaminata)); experiment: two-hybrid

Row | binding [1] | binding [2] | Binder
1 | no binding | binds | XB3 full-length (FL) (1-450aa) (protein, UniProt Q65XV2 1-450) MGHGVSCARTGDEHDFFRAAQLGDLDALAALLAADPSLARRATLYDRLSVLHIAAANGRIEVLSMFLDRGAPPDAVNRHKQTPLMLAAMHGKIDCVLKLLQADANILMFDSVHARTCLHHAAYYGHVDCLQAILAAAQTTPVADSWGFARFVNVRDDHGATPLHLAARQGRPGCVQVLLENGAIVSALTGSYGFPGSTSLHLAARSGNLDCIRKLLAWGADRLQRDSAGRIPYSVALKRNHGACAALLNPTSAEPMVWPSPLKFISELEPEAKALLEAALMEANREREKKILNGTKYSLPSPSPGDDSADDDACSEVSDTELCCICFDQACTIEVQDCGHQMCAPCTLALCCHNKPNPTTLTPPSPACPFCRGSISRLVVAQTRSACDPDKPSSLQLTRKRSRRSHNLSEGSSSFKGLPSAMGSFSKLGRGSSRMADSDSSNLDKPEHDL
2 | no binding | binds | OsSERK2 intracellular domain (260-628aa) (domain or fragment, UniProt Q7XV05 260-628) AIGFAWWRRRKPEEHFFDVPAEEDPEVHLGQLKRFSLRELQVATDNFSNKNILGRGGFGKVYKGRLADGSLVAVKRLKEERTPGGELQFQTEVEMISMAVHRNLLRLRGFCMTPTERLLVYPYMANGSVASRLRERQPNDPPLEWQTRTRIALGSARGLSYLHDHCDPKIIHRDVKAANILLDEDFEAVVGDFGLAKLMDYKDTHVTTAVRGTIGHIAPEYLSTGKSSEKTDVFGYGIMLLELITGQRAFDLARLANDDDVMLLDWVKGLLKEKKVEMLVDPDLQSGFVEHEVESLIQVALLCTQGSPMDRPKMSEVVRMLEGDGLAERWEEWQKVEVVRQEAELAPRHNDWIVDSTYNLRAMELSGPR

Source: PMC4379099 (PLoS Pathogens, 2015)
